These are yes or no findings as the source states them, for the method shown. In cells and extracts the contact can be indirect. These calls come from enrichment with a bait or labelling near it, and not all partners need be listed.
Molecular target: Flag-tagged IDO1 (indoleamine 2,3-dioxygenase 1) (UniProt P14902)
Assay: affinity purification with mass spectrometry; A549 cells transfected with Flag-IDO1; extracts in 0.2 mM EDTA, 50 mM Tris-HCl, 150 mM NaCl, 0.3% NP-40; anti-Flag affinity beads at 4°C overnight, elution with Flag peptide, 10% SDS-PAGE, silver staining, band identified by mass spectrometry

Chains of the proteins cited; added tags and fusions are not shown.
UniProt P14902: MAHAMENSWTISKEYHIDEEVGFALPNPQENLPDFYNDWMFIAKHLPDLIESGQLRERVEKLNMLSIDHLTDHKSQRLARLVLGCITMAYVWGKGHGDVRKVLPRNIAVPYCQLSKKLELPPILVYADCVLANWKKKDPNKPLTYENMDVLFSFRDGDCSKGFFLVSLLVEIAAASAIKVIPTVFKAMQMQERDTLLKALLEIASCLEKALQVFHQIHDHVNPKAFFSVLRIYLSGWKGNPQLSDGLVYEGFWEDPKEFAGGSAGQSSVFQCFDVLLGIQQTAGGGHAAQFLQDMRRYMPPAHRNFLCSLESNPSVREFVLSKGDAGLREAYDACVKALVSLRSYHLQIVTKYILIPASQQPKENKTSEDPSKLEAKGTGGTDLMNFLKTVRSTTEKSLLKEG

binding: binds
B1: GBP1 (protein, UniProt P32455 1-592)
chain: MASEIHMTGPMCLIENTNGRLMANPEALKILSAITQPMVVVAIVGLYRTGKSYLMNKLAGKKKGFSLGSTVQSHTKGIWMWCVPHPKKPGHILVLLDTEGLGDVEKGDNQNDSWIFALAVLLSSTFVYNSIGTINQQAMDQLYYVTELTHRIRSKSSPDENENEVEDSADFVSFFPDFVWTLRDFSLDLEADGQPLTPDEYLTYSLKLKKGTSQKDETFNLPRLCIRKFFPKKKCFVFDRPVHRRKLAQLEKLQDEELDPEFVQQVADFCSYIFSNSKTKTLSGGIQVNGPRLESLVLTYVNAISSGDLPCMENAVLALAQIENSAAVQKAIAHYEQQMGQKVQLPTETLQELLDLHRDSEREAIEVFIRSSFKDVDHLFQKELAAQLEKKRDDFCKQNQEASSDRCSALLQVIFSPLEEEVKAGIYSKPGGYRLFVQKLQDLKKKYYEEPRKGIQAEEILQTYLKSKESMTDAILQTDQTLTEKEKEIEVERVKAESAQASAKMLQEMQRKNEQMMEQKERSYQEHLKQLTEKMENDRVQLLKEQERTLALKLQEQEQLLKEGFQKESRIMKNEIQDLQTKMRRRKACTIS

From PMC7857027
